The target of assay [1] is GST-Plk1 PBD WT (Polo box domain of Plk1). The experiment in a line: pull-down; bead-conjugated GST-Plk1 PBD WT incubated with lysates of HEK293T cells transfected with FLAG-HEF1 constructs for 1 h at 4 °C, washed with TBSN; immunoblot with anti-FLAG antibody; in Figure 4B also with co-transfected Myc-CK1delta or Myc-CK1epsilon; only the target purified. For orientation: A western blot detects proteins with antibodies after separation by electrophoresis.

Assay [2] shares this target. The experiment in a line: pull-down; bead-conjugated GST-PBD WT or AM incubated with HeLa total cell lysates (thymidine-treated, asynchronous or nocodazole-treated) for 1 h at 4 °C, washed with TBSN; immunoblot with anti-HEF1 antibody; only the target purified.

Results are given in words; binding and its absence hold for the method and conditions named. In cells and extracts the contact can be indirect. Binding can be weak; no strength is given. For part of these data: Tags and fused reporters may be left off the sequences shown.

B1: FLAG-HEF1 T6 (truncation mutant, C-terminal region, aa 710-834) (domain or fragment, UniProt Q14511 710-834)
chain: FYYDQCETHFISLLNAIDALFSCVSSAQPPRIFVAHSKFVILSAHKLVFIGDTLTRQVTAQDIRNKVMNSSNQLCEQLKTIVMATKMAALHYPSTTALQEMVHQVTDLSRNAQLFKRSLLEMATF
For the molecule B1, the binding entry in assay [1] is on record as “binds”.

B2: FLAG-HEF1 T6 S735A (domain or fragment, UniProt Q14511 710-834)
chain: FYYDQCETHFISLLNAIDALFSCVSAAQPPRIFVAHSKFVILSAHKLVFIGDTLTRQVTAQDIRNKVMNSSNQLCEQLKTIVMATKMAALHYPSTTALQEMVHQVTDLSRNAQLFKRSLLEMATF
Consider B2, for which the binding result in assay [1] is recorded as “binds”.

B3: HEF1, endogenous (protein, UniProt Q14511 1-834)
chain: MKYKNLMARALYDNVPECAEELAFRKGDILTVIEQNTGGLEGWWLCSLHGRQGIVPGNRVKLLIGPMQETASSHEQPASGLMQQTFGQQKLYQVPNPQAAPRDTIYQVPPSYQNQGIYQVPTGHGTQEQEVYQVPPSVQRSIGGTSGPHVGKKVITPVRTGHGYVYEYPSRYQKDVYDIPPSHTTQGVYDIPPSSAKGPVFSVPVGEIKPQGVYDIPPTKGVYAIPPSACRDEAGLREKDYDFPPPMRQAGRPDLRPEGVYDIPPTCTKPAGKDLHVKYNCDIPGAAEPVARRHQSLSPNHPPPQLGQSVGSQNDAYDVPRGVQFLEPPAETSEKANPQERDGVYDVPLHNPPDAKGSRDLVDGINRLSFSSTGSTRSNMSTSSTSSKESSLSASPAQDKRLFLDPDTAIERLQRLQQALEMGVSSLMALVTTDWRCYGYMERHINEIRTAVDKVELFLKEYLHFVKGAVANAACLPELILHNKMKRELQRVEDSHQILSQTSHDLNECSWSLNILAINKPQNKCDDLDRFVMVAKTVPDDAKQLTTTINTNAEALFRPGPGSLHLKNGPESIMNSTEYPHGGSQGQLLHPGDHKAQAHNKALPPGLSKEQAPDCSSSDGSERSWMDDYDYVHLQGKEEFERQQKELLEKENIMKQNKMQLEHHQLSQFQLLEQEITKPVENDISKWKPSQSLPTTNSGVSAQDRQLLCFYYDQCETHFISLLNAIDALFSCVSSAQPPRIFVAHSKFVILSAHKLVFIGDTLTRQVTAQDIRNKVMNSSNQLCEQLKTIVMATKMAALHYPSTTALQEMVHQVTDLSRNAQLFKRSLLEMATF
For the molecule B3, in assay [2], the binding result is reported as “binds”.

(Values after PMC5777258, “Phosphorylation of human enhancer filamentation 1 (HEF1) stimulates interaction with Polo-like kinase 1 leading to HEF1 localization to focal adhesions” (The Journal of Biological Chemistry, 2017).)
